The text below walks through data of PubChem BioAssay AID328 (DTP/NCI, 2004).

The list is a part of this screen's results and no random one: its compounds were picked by chemical class. Other doses and runs of a compound may be missing. T/C: endpoint of the treated group in % of that of the vehicle group. Some entries give survivors of the animals treated and no T/C: the source files T/C as zero there, which appears to mark a toxic dose or a test without result, not a measured value. Some survivor counts are full or nearly so, which does not show that the dose was tolerated: the source hardly ever lists a survival T/C far under the control, and the zero likely stands for such cases as well. Counts of survivors are from the toxicity check (mostly the fifth day) where no day follows; animals may have died later. Schedule codes are those of the source, read here as Q, the interval in days (D) or hours (H), X, the number of doses. Some complexes appear as separate parts, the way the source draws them; their charges need not add up. Where survival is the endpoint, the PubChem record calls one and a half times the control and up active, and a quarter to a half above the control has no call in these data; cut-offs in other NCI protocols can differ. Brackets with × count equal records among those shown. Some T/C values are followed by the survivors on the day toxicity was checked, most often the fifth; without a count or a note in brackets, all were alive then. Some entries hold several experiments; their values stand side by side, smallest first.

This test relates to BDF1 mice, P388 leukemia ip, median survival T/C. In words: NCI In Vivo Anticancer Drug Screen. Data for tumor model P388 Leukemia (intraperitoneal) in B6D2F1 (BDF1) mice. Conditions: T/C endpoint: median survival time, higher T/C = longer survival. A digest of the protocol:
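Steps: implant the tumour, treat one group with compound and another with vehicle, record survival, then divide treated by control.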

[1] abbreviates: dose: 75.0 mg/kg/injection, schedule: Q04DX003 (ip), vehicle: Klucel (hydroxypropylcellulose) (HPC).
Where [2] appears, read: dose: 25.0 mg/kg/injection, schedule: Q01DX009 (ip), vehicle: saline.
Setting [3] is: dose: 50.0 mg/kg/injection, schedule: Q01DX009 (ip), vehicle: saline.
Where [4] appears, read: dose: 100.0 mg/kg/injection, schedule: Q01DX009 (ip), vehicle: saline.
Setting [5] is: dose: 100.0 mg/kg/injection, schedule: Q04DX003 (ip), vehicle: saline.
Setting [6] is: dose: 200.0 mg/kg/injection, schedule: Q04DX003 (ip), vehicle: saline.
Setting [7] is: dose: 50.0 mg/kg/injection, schedule: Q01DX009 (ip), vehicle: saline with Tween-80.
Where [8] appears, read: dose: 100.0 mg/kg/injection, schedule: Q01DX009 (ip), vehicle: saline with Tween-80.
[9] abbreviates: dose: 200.0 mg/kg/injection, schedule: Q01DX009 (ip), vehicle: saline with Tween-80.
Setting [10] is: dose: 0.78 mg/kg/injection, schedule: Q01DX009 (iv), vehicle: saline.

Take `Cc1cc(N(CCCl)CCCl)c2ccccc2c1`: the T/C is, setting by setting: (dose: 3.1 mg/kg/injection, schedule: Q04DX003 (ip), vehicle: Klucel (hydroxypropylcellulose) (HPC)) 100 % of control; (dose: 3.5 mg/kg/injection, schedule: Q01DX009 (ip), vehicle: Klucel (hydroxypropylcellulose) (HPC)) 95 % of control; (dose: 4.7 mg/kg/injection, schedule: Q04DX003 (ip), vehicle: Klucel (hydroxypropylcellulose) (HPC)) 140 % of control; (dose: 7.0 mg/kg/injection, schedule: Q01DX009 (ip), vehicle: Klucel (hydroxypropylcellulose) (HPC)) 95 % of control; (dose: 7.2 mg/kg/injection, schedule: Q04DX003 (ip), vehicle: Klucel (hydroxypropylcellulose) (HPC)) 145 % of control; (dose: 9.2 mg/kg/injection, schedule: Q01DX009 (ip), vehicle: Klucel (hydroxypropylcellulose) (HPC)) 177 % of control (2×). Besides, the T/C (dose: 10.0 mg/kg/injection, schedule: Q04DX003 (ip), vehicle: Klucel (hydroxypropylcellulose) (HPC)) is 140 % of control; the T/C (dose: 14.0 mg/kg/injection, schedule: Q01DX009 (ip), vehicle: Klucel (hydroxypropylcellulose) (HPC)) was 186, 200, 218 % of control [5 of 6 alive]; the T/C (dose: 16.5 mg/kg/injection, schedule: Q04DX003 (ip), vehicle: Klucel (hydroxypropylcellulose) (HPC)) was 159 % of control; the T/C (dose: 21.0 mg/kg/injection, schedule: Q01DX009 (ip), vehicle: Klucel (hydroxypropylcellulose) (HPC)) was 127 and 227 % of control; the T/C (dose: 24.75 mg/kg/injection, schedule: Q04DX003 (ip), vehicle: Klucel (hydroxypropylcellulose) (HPC)) was 100 % of control; the T/C (dose: 28.12 mg/kg/injection, schedule: Q01DX009 (ip), vehicle: Klucel (hydroxypropylcellulose) (HPC)) is 91 % of control. In addition, the T/C reads like this: (dose: 49.5 mg/kg/injection, schedule: Q04DX003 (ip), vehicle: Klucel (hydroxypropylcellulose) (HPC)) 95 % of control; (dose: 50.0 mg/kg/injection, schedule: Q04DX003 (ip), vehicle: Klucel (hydroxypropylcellulose) (HPC)) 209 % of control; under setting [1], 95 % of control; (dose: 112.5 mg/kg/injection, schedule: Q04DX003 (ip), vehicle: Klucel (hydroxypropylcellulose) (HPC)) 100 [5 of 6 alive] and 242 % of control. For the same compound, the survivor count is reported as 6 of 6 (dose: 56.25 mg/kg/injection, schedule: Q01DX009 (ip), vehicle: Klucel (hydroxypropylcellulose) (HPC)); 5 of 6 under setting [1]; 5 of 6 (dose: 112.5 mg/kg/injection, schedule: Q01DX009 (ip), vehicle: Klucel (hydroxypropylcellulose) (HPC)).
`C1COP(OCCOP2OCCO2)O1`: the T/C was 95 % of control under setting [2]; 104 % of control [4 of 6 alive] under setting [3]; 95 % of control (dose: 50.0 mg/kg/injection, schedule: Q04DX003 (ip), vehicle: saline); 100 % of control [5 of 6 alive] under setting [4]; 100 % of control under setting [5]. In addition, the survivor count under setting [6] is 4 of 6.
On to `CN(C)c1ccc(N=O)cc1.[C-]#N.[C-]#N.[C-]#N.[C-]#N.[C-]#N.[Fe+6]`, for which the T/C (dose: 6.25 mg/kg/injection, schedule: Q01DX009 (ip), vehicle: saline) was 104 % of control [5 of 6 alive]; the T/C (dose: 12.5 mg/kg/injection, schedule: Q01DX009 (ip), vehicle: saline) was 109 % of control; the T/C under setting [2] was 95 % of control; the T/C under setting [5] is 104 % of control; the T/C under setting [6] was 104 % of control. In addition, the survivor count runs as follows: under setting [3], 5 of 6; under setting [4], 5 of 6; (dose: 200.0 mg/kg/injection, schedule: Q01DX009 (ip), vehicle: saline) 5 of 6; (dose: 400.0 mg/kg/injection, schedule: Q04DX003 (ip), vehicle: saline) 0 of 6.
For the compound `N/C(=N\N=C\c1ccc([N+](=O)[O-])o1)N[N+](=O)[O-]`, the survivor count under setting [7] is on record as 6 of 6. Further, the T/C under setting [8] was 100 % of control [5 of 6 alive] and the T/C under setting [9] was 86 % of control.
As for `C1CN1`, the T/C by setting is: (dose: 0.39 mg/kg/injection, schedule: Q01DX009 (iv), vehicle: saline) 100 and 150 % of control; under setting [10], 112 % of control; (dose: 0.78 mg/kg/injection, schedule: Q04DX003 (ip), vehicle: saline) 109 % of control; (dose: 1.56 mg/kg/injection, schedule: Q01DX009 (iv), vehicle: saline) 110 and 120 % of control; (dose: 1.56 mg/kg/injection, schedule: Q04DX003 (ip), vehicle: saline) 109 % of control; (dose: 3.12 mg/kg/injection, schedule: Q01DX009 (iv), vehicle: saline) 100 [5 of 6 alive] and 135 % of control. Moreover, the T/C reads like this: (dose: 3.12 mg/kg/injection, schedule: Q04DX003 (ip), vehicle: saline) 109 % of control; (dose: 10.0 mg/kg/injection, schedule: Q04DX003 (ip), vehicle: saline) 90 % of control [4 of 6 alive]. In addition, the survivor count is on record as 2 of 6 under setting [10]; 0 of 6 (dose: 4.6 mg/kg/injection, schedule: Q01DX009 (iv), vehicle: saline); 3 of 6 (dose: 4.6 mg/kg/injection, schedule: Q04DX003 (ip), vehicle: saline); 2 of 6 (dose: 4.6 mg/kg/injection, schedule: Q04DX003 (iv), vehicle: saline); 1 of 6 (dose: 7.0 mg/kg/injection, schedule: Q01DX009 (iv), vehicle: saline); 3 of 6 (dose: 7.0 mg/kg/injection, schedule: Q04DX003 (ip), vehicle: saline). The survivor count runs as follows: (dose: 7.0 mg/kg/injection, schedule: Q04DX003 (iv), vehicle: saline) 3 of 6; (dose: 10.0 mg/kg/injection, schedule: Q01DX009 (iv), vehicle: saline) 3 of 6; (dose: 10.0 mg/kg/injection, schedule: Q04DX003 (iv), vehicle: saline) 2 of 6.
For `Cc1cc([N+](=O)[O-])cc([N+](=O)[O-])c1O`, the survivor count is listed as 4 of 6 (dose: 10.0 mg/kg/injection, schedule: Q04DX003 (ip), vehicle: saline with Tween-80); 3 of 6 (dose: 20.0 mg/kg/injection, schedule: Q04DX003 (ip), vehicle: saline with Tween-80); 2 of 6 (dose: 40.0 mg/kg/injection, schedule: Q04DX003 (ip), vehicle: saline with Tween-80); 2 of 6 (dose: 100.0 mg/kg/injection, schedule: Q01DX001 (ip), vehicle: Klucel (hydroxypropylcellulose) (HPC)); 0 of 6 (dose: 200.0 mg/kg/injection, schedule: Q01DX001 (ip), vehicle: Klucel (hydroxypropylcellulose) (HPC)); 0 of 6 (dose: 400.0 mg/kg/injection, schedule: Q01DX001 (ip), vehicle: Klucel (hydroxypropylcellulose) (HPC)).
For `O=[N+]([O-])c1ccc2c(Cl)n([N+](=O)[O-])nc2c1`, under setting [7], the T/C is 86 % of control. Also, the survivor count by setting is: under setting [8], 6 of 6; under setting [9], 6 of 6.
For `O=[N+]([O-])c1ccc(Nc2ccc(Oc3ccc([N+](=O)[O-])cc3[N+](=O)[O-])cc2)c([N+](=O)[O-])c1`, the T/C by setting is: (dose: 100.0 mg/kg/injection, schedule: Q01DX009 (ip), vehicle: Klucel (hydroxypropylcellulose) (HPC)) 100 % of control; (dose: 200.0 mg/kg/injection, schedule: Q01DX009 (ip), vehicle: Klucel (hydroxypropylcellulose) (HPC)) 95 % of control [4 of 6 alive]; (dose: 400.0 mg/kg/injection, schedule: Q01DX009 (ip), vehicle: Klucel (hydroxypropylcellulose) (HPC)) 86 % of control.
